Assay results as given in US20190142738A1, “TRANSDERMAL FORMULATIONS FOR DELIVERY OF CELECOXIB AND ITS USE IN THE TREATMENT OF CELECOXIB-RESPONSIVE DISEASES AND CONDITIONS” (DELIVRA INC., priority 2016, published 2019).
At least one compound was matched to its structure with a doubt left.

Legend:
[1] = test system: sodium urate induced synovitis model in Beagle dogs; test: Pain questionnaire assessment (cumulative pain score), sodium urate induced synovitis model; type: in vivo
Experimental: Study Design: The study was a randomized, blinded, preclinical study using a controlled, parallel, matched-group design. Thirty-two subjects meeting the inclusion criteria were enrolled in the trial and allocated to 4 balanced groups; therefore one group received 2 treatments separated by a minimum of 14 days. Following induction of synovitis by sodium urate injections, effectiveness of transdermal formulations were evaluated using a pain questionnaire assessment and joint measurements at various time points. [table] On days 0, 2, 7 and 22, subjects who were schedules for synovitis induction were treated according to their assigned treatment condition. Test article administration occurred 30 minutes following synovitis induction, i.e. sodium urate injection. Transdermal treatment doses were measured in milligrams using an analytical scale and were then applied directly to the induce stifle. Transdermal treatments were rubbed into the dog's skin for a minimum of 1 minute. Oral treatments were administered with attention to complete delivery and retention of the entire intended dose. C) Anesthesia and sodium urate injection: Induction of synovitis by sodium urate injection occurred on days 0, 2, 7 and 22, as outlined above. Anesthesia was induced with propofol (8 mg/kg W to effect). Subjects were then intubated and anesthesia was maintained with an isoflurane-oxygen mixture. If IV administration of the propofol was not possible due to inaccessibility of the vein, the subjects were masked down using the isoflurane-oxygen mixture and the event was recorded on the anesthesia record. Prior to injection, sodium urate crystals were mixed with sterile saline to produce a solution with a concentration of 20 mg/mL. The solution was sonicated for 60 minutes and the pH was adjusted to a suitable level for injection (between 6.9 and 7.2) with the addition of either hydrochloric acid or sodium hydroxide. Following aseptic surgical preparation of the injection area, the joint was aspirated and the presence of synovial fluid confirmed accurate location for injection. For each animal, 1 ml of the sodium urate solution was injected into either the right or left stifle. For the second urate injection (if applicable), the stifle contralateral to that used for the first urate injection was used. Each treatment group had the same number of dogs induced in the left […]) Pain questionnaire assessment: The pain questionnaire is a laboratory adaption of the validated canine brief pain inventory (CBPI) questionnaire, which is a clinical questionnaire used to evaluate pain level based on owner responses. Modifications to the questionnaire account for differences between owner pain evaluation of pets and pain evaluation of laboratory dogs by technical staff. Specifically, the ability for each dog to walk, trot, gallop, rear, jump over a low obstacle, climb and descend stairs, jump down from a perch and general activity is evaluated in parallel to subjective evaluation of pain observed during each behavior. Assessments were performed by the same trained technician across the study. All subjects underwent pain questionnaire pre-screening within 3 days of each scheduled induction. Cumulative pain scores were used to confirm inclusion criteria and also served as the baseline scores for the treatment administered. […] On days sodium urate was injected, animals were assessed on the questionnaire at 4.5, 8.5, 24.5 and 30.5 hours following induction of synovitis (±15 minutes). […]

[2] = test system: sodium urate induced synovitis model in Beagle dogs; test: Caliper measurement of patella/patellar tendon (knee cap) width, percent baseline measure of inflammation, sodium urate induced synovitis model; type: in vivo
Experimental: Study Design: The study was a randomized, blinded, preclinical study using a controlled, parallel, matched-group design. Thirty-two subjects meeting the inclusion criteria were enrolled in the trial and allocated to 4 balanced groups; therefore one group received 2 treatments separated by a minimum of 14 days. Following induction of synovitis by sodium urate injections, effectiveness of transdermal formulations were evaluated using a pain questionnaire assessment and joint measurements at various time points. [table] On days 0, 2, 7 and 22, subjects who were schedules for synovitis induction were treated according to their assigned treatment condition. Test article administration occurred 30 minutes following synovitis induction, i.e. sodium urate injection. Transdermal treatment doses were measured in milligrams using an analytical scale and were then applied directly to the induce stifle. Transdermal treatments were rubbed into the dog's skin for a minimum of 1 minute. Oral treatments were administered with attention to complete delivery and retention of the entire intended dose. C) Anesthesia and sodium urate injection: Induction of synovitis by sodium urate injection occurred on days 0, 2, 7 and 22, as outlined above. Anesthesia was induced with propofol (8 mg/kg W to effect). Subjects were then intubated and anesthesia was maintained with an isoflurane-oxygen mixture. If IV administration of the propofol was not possible due to inaccessibility of the vein, the subjects were masked down using the isoflurane-oxygen mixture and the event was recorded on the anesthesia record. Prior to injection, sodium urate crystals were mixed with sterile saline to produce a solution with a concentration of 20 mg/mL. The solution was sonicated for 60 minutes and the pH was adjusted to a suitable level for injection (between 6.9 and 7.2) with the addition of either hydrochloric acid or sodium hydroxide. […] Each treatment group had the same number of dogs induced in the left […]) Caliper measurements: Within thirty minutes of synovitis induction and 4.5, 8.5, 24.5 and 30.5 hours following induction (±15 minutes), the width of the patella and the patellar tendon were measured in millimeters using […] 150 mm plastic gauge calipers which measured in increments of 1 mm. […] The cumulative pain scored and stifle measurements were analyzed using a repeated-measures analysis of variance (ANOVA) with the treatment group (7 factors( ) as between-subject measure and time-point (5 factors for pain and 4 factors for the inflammation measure) as a within-subject measure. Post-hoc Fisher's test was used to examine differences as appropriate. The Statistica 11 (Statsoft, Tulsa, Okla.) statistical software package was used with significance set to […].

Which results are given for Cc1cnc(NC(=O)C2=C(O)c3ccccc3S(=O)(=O)N2C)s1 [meloxicam]?
cumulative pain score compared to oral delivery of Celebrex ([1]; 8 hours): significantly superior; cumulative pain score in comparison to no treatment ([1]; 8 hours after treatment): reduced pain; cumulative pain score compared to oral delivery of Celebrex ([1]; 24 hours): significantly superior; cumulative pain score in comparison to no treatment ([1]; 24 hours after treatment): reduced pain; cumulative pain score in comparison to no treatment ([1]; 30 hours after treatment): reduced pain; inflammation compared to Voltaren ([2]; 8 hours): significantly reduced inflammation; percent baseline measure of inflammation (knee cap measurement) in comparison to no treatment ([2]; 8 hours): reduced inflammation; percent baseline measure of inflammation (knee cap measurement) in comparison to no treatment ([2]; 24 hours): reduced inflammation; percent baseline measure of inflammation (knee cap measurement) in comparison to no treatment ([2]; 30 hours): reduced inflammation
